Results reported in patent US20210123065.

Tested on: Bxb1 integrase (Mycobacteriophage Bxb1)
Test: activity in cells
Conditions: attL x attR excision with gp47 RDF co-expressed; integrations stable >100 generations without gp47 (p95); protein in cells; only the site is given

Sequence: GGTTTGTCTGGTCAACCACCGCGGTCTCCGTCGTCAGGATCATCG (double strand) [Bxb1 attR junction]
- activity on this sequence: active

For at least one entry, the source does not settle the construct or the ends of the probe.
